These are yes or no findings as the source states them, for the method shown. Some results given as binding are weak or reduced against the parent protein; the word gives no strength. Tags and fused reporters may be left off the sequences shown.
B1: 2×Lm32-MBP fusion (protein, not shown: small tags and cut ends)
peptide: PGKGGGSMGAQTNFMPMDNDELLLYEQFILQQGLEGGGSMGAQTNFMPMDNDELLLYEQFILQQGLE

Sequences of proteins named here, by UniProt entry; tags and fusion partners are left off. Residues count along the entry.
UniProt O15123, residues 68-496: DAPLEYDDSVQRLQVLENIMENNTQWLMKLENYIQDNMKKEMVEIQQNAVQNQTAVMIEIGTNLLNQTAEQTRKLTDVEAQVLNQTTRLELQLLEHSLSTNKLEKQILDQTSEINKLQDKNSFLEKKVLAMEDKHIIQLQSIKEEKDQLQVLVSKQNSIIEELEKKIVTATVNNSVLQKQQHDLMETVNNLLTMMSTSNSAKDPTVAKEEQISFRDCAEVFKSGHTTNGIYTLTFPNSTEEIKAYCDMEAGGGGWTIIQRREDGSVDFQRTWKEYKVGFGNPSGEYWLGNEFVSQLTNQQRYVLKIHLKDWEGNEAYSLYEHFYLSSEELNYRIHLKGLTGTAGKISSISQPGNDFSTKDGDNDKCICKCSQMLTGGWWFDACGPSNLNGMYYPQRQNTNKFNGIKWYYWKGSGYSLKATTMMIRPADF

Legend:
[1] = target: angiopoietin-2 (Ang2) (human) (UniProt O15123); experiment: ELISA, rhAng2-coated wells (320 ng/ml), serially diluted osmotic shock fractions of MRD-MBP fusions, HRP anti-MBP mAb, A450; key to the curve numbers on D00010 FIG. 17B
[2] = target: angiopoietin-2 (Ang2) (human) (UniProt O15123); experiment: ELISA, MRD-MBP fusions on plate-bound rhAng2, anti-MBP detection

Row | Binder | binding [1] | binding [2]
1 | B1 | binds | –
2 | PGSGGGSMGAQTNFMPMDNDELLLYEQFILQQGLE (peptide, not shown: small tags and cut ends) [Lm32 KtoS-MBP fusion] | binds | binds
3 | PGKGGGSMGAQTNFMPMNDDEQRLYEQFILQQGLE (peptide, not shown: large carriers; small tags and cut ends) [L1-7D MND] | binds | –
4 | PGKGGGSMGAQTNFMPMGDDEQRLYEQFILQQGLE (peptide, not shown: large carriers; small tags and cut ends) [L1-7D MGD] | binds | –
5 | PGKGGGSMGAQTNFMPMSDDEQRLYEQFILQQGLE (peptide, not shown: large carriers; small tags and cut ends) [L1-7D MSD] | binds | –
6 | PGKGGGSMGAQTNFMPMTDDEQRLYEQFILQQGLE (peptide, not shown: large carriers) [L1-7D MTD] | binds | –
7 | PGKGGGSMGAQTNFMPMEDDEQRLYEQFILQQGLE (peptide, not shown: large carriers; small tags and cut ends) [L1-7D MED] | binds | –
8 | PGKGGGSMGAQTNFMPMHDDEQRLYEQFILQQGLE (peptide, not shown: large carriers; small tags and cut ends) [L1-7D MHD] | binds | –

— US20170298106A1
